# Data reported in article PMC7819943, “Rice protein-binding microarrays: a tool to detect cis-acting elements near promoter regions in rice”.
# Chains of the proteins cited; added tags and fusions are not shown.
# UniProt Q0JBA9, entry or part of it: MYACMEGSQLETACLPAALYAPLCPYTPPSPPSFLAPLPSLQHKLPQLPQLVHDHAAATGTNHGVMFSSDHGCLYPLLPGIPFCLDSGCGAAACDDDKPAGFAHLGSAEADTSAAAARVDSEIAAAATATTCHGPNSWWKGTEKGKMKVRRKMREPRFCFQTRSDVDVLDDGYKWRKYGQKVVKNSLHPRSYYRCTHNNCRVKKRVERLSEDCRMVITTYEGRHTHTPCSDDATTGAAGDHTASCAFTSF
# The other results are listed elsewhere or left out.
# Molecular target: OsWRKY34 (Oryza sativa, UniProt Q0JBA9 1-250)
# Assay: protein-binding microarray (RPBM); PBS, 2% BSA, 51.3 ng/ul salmon testes DNA, 50 uM zinc acetate, 200 nM TF, 25 C, 1 h; high values mean tight binding
# Settings: protein: recombinant; tags: N-terminal polyhistidine and DsRed monomer fusion (pET32a); label: CyDye5-dUTP incorporated in the synthesized complementary strand; 3' TTTTT single-stranded linker to array surface; dsDNA, one strand shown
# Summary of the method: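 Transcription factors were each fused at the N-terminus to a polyhistidine tag plus DsRed and expressed in E. coli BL21-CodonPlus before Ni–NTA purification. Binding to a double-stranded custom Agilent array was carried out with 200 nM protein at 25 °C for 1 h in PBS, 2% BSA, salmon testes DNA and 50 µM zinc acetate. The binding signal is per-feature fluorescence intensity, in arbitrary units, on an Axon 4000B scanner.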
row,Sequence,binding signal
1,GATCTATCGTATCAATGGATGGTGCTTCAATTTGTTCTTACGGAGTCACCTAGTGCAG,9310 fluorescence intensity (a.u.)
2,CAATTTTTCCACTGTATTGACAATGCACAACATGCCCGATCGGAGTCACCTAGTGCAG,9000 fluorescence intensity (a.u.)
3,AGCATATATTAATTATATATATTGCATGTATTTTATTTTTCGGAGTCACCTAGTGCAG,8290 fluorescence intensity (a.u.)
4,TGTTGTTTTTGTTTCTTCATATGTTGTTGATCGAATTTAGCGGAGTCACCTAGTGCAG,12000 fluorescence intensity (a.u.)
5,TGAGCCCATCCATTTTGACCCATGCCATCCTGGTCCTATACGGAGTCACCTAGTGCAG,9080 fluorescence intensity (a.u.)
6,GAGTGGTAAGAGTTGTGTGGTTTTAACTTTGATCCAGTTCCGGAGTCACCTAGTGCAG,10100 fluorescence intensity (a.u.)
7,TGTCTTTATTAAGTGCAAATGTATTTGGATTCCAACCCTTCGGAGTCACCTAGTGCAG,8180 fluorescence intensity (a.u.)
8,GGACGCTTGTCAATGGCATTTCTTGAATTATCTCTTCTCTCGGAGTCACCTAGTGCAG,9110 fluorescence intensity (a.u.)
9,CTGCCTGCTCATGAGTCATGACATATACTAGCTTGATCAACGGAGTCACCTAGTGCAG,8230 fluorescence intensity (a.u.)
10,TAGCCCGTTCTTTTTGACTCCGCGGTGACTCGCGCGCTCTCGGAGTCACCTAGTGCAG,10600 fluorescence intensity (a.u.)
11,CTTTCGTCTCGGTCTTTGTGGTCTTGGAGTCCATTCTTCACGGAGTCACCTAGTGCAG,10600 fluorescence intensity (a.u.)
12,GCTGTATGTTTTTACCTCTTTTTTTTTTGTTTTCATTATTCGGAGTCACCTAGTGCAG,10300 fluorescence intensity (a.u.)
13,TCTTCTTCTTATCTCTATACTCCGTAGTACATATACACGCCGGAGTCACCTAGTGCAG,8990 fluorescence intensity (a.u.)
14,AACTACCCCTGTCTGTGCCACCCATCTCTCCAGATTAGGACGGAGTCACCTAGTGCAG,8930 fluorescence intensity (a.u.)
15,TCGTCGCCGGGTTCCTCATCGTCACCTGCGCCTACTTCTCCGGAGTCACCTAGTGCAG,8250 fluorescence intensity (a.u.)
16,GTTCTTCAACCTATGGAAGTCGGTATGACACTTCTGATTCCGGAGTCACCTAGTGCAG,8200 fluorescence intensity (a.u.)
17,GCACGTACGGGTATCACCTTCTTGTTATCAGTAACTACTCCGGAGTCACCTAGTGCAG,8040 fluorescence intensity (a.u.)
18,TAAAAATTTTTAGTGTTCGTTTGCTGGGTTGGTAACTAATCGGAGTCACCTAGTGCAG,9660 fluorescence intensity (a.u.)
19,GGTTGGGATTTGGTGTCTGCTTTGGAATTACAATTTTAGTCGGAGTCACCTAGTGCAG,9590 fluorescence intensity (a.u.)
20,ATCTCAGCATTTTCTCCAGTTTTTCTCCTACTCTTAACTCCGGAGTCACCTAGTGCAG,9740 fluorescence intensity (a.u.)
21,AACCTCGCCATCTTTCTCTGACATGTCGCTCACCGCTGTGCGGAGTCACCTAGTGCAG,12800 fluorescence intensity (a.u.)

# Part of the list above in a different format:
row	Sequence	binding signal
12	GCTGTATGTTTTTACCTCTTTTTTTTTTGTTTTCATTATTCGGAGTCACCTAGTGCAG	10300 fluorescence intensity (a.u.)
13	TCTTCTTCTTATCTCTATACTCCGTAGTACATATACACGCCGGAGTCACCTAGTGCAG	8990 fluorescence intensity (a.u.)

# Next part

row,Sequence,binding signal
1,GGCCTAATTATTGCCTTAATTTTTCTCTTTGGTTTTCTCACGGAGTCACCTAGTGCAG,9070 fluorescence intensity (a.u.)
2,CTTGTTATTTCTTTTAACTTTTTTGCTCTTAATCTGAATCCGGAGTCACCTAGTGCAG,8300 fluorescence intensity (a.u.)
3,GCCTAGTGGAGGGGATGGTTGGGGATGAGCATTAGGTGTCCGGAGTCACCTAGTGCAG,11000 fluorescence intensity (a.u.)
4,ATATTTGCATTGCTCCAATTCTTCAGCCAGCGAGTTTATACGGAGTCACCTAGTGCAG,9560 fluorescence intensity (a.u.)
5,AGAGACCCGCCGCCGCCGTCTTTGCAGCCGCCCGGCTTTGCGGAGTCACCTAGTGCAG,8260 fluorescence intensity (a.u.)
6,GAGAATAATAGTCAATCTGTAGCTCAGTGCCCTTTTCTTCCGGAGTCACCTAGTGCAG,8140 fluorescence intensity (a.u.)
7,GAACAGCTCAGCTCACCGCATCCTTTGACTTTTTAACCAGCGGAGTCACCTAGTGCAG,18100 fluorescence intensity (a.u.)
8,GCCACCATGCACCATCCCTGGCCCTCGCAGACCCTCAATACGGAGTCACCTAGTGCAG,10000 fluorescence intensity (a.u.)
9,TGTGTTGTTGTCACACTGTTGCGTGTGTCAGATGCAGGAACGGAGTCACCTAGTGCAG,9770 fluorescence intensity (a.u.)
10,TATTTCTGTGGGAGGAGGGTCCAGGAGATGAGAGGGGCGGCGGAGTCACCTAGTGCAG,11700 fluorescence intensity (a.u.)
11,GGCTTGTTCACTTTATCGCGTTTTGGCATTACCAAATTTTCGGAGTCACCTAGTGCAG,15000 fluorescence intensity (a.u.)
12,TTTTCTTTCCTTTATTATTTTCTTTATCCTTTTTTTCTCCCGGAGTCACCTAGTGCAG,9250 fluorescence intensity (a.u.)
13,ACTGCTCCTTGGTTTTTTTTACTCGTCGAGTCATCTTCCCCGGAGTCACCTAGTGCAG,11300 fluorescence intensity (a.u.)
14,CCCGCCGCCGCTCCACCACCGCGGCGCCGCGCCTCCTCTCCGGAGTCACCTAGTGCAG,8880 fluorescence intensity (a.u.)
15,TTGACATGTAAAGTGCATTTGTAAAACAATAGCTTACAATCGGAGTCACCTAGTGCAG,8730 fluorescence intensity (a.u.)
16,GACCGGCAATCTTAAGATTTTCAGCTACTCCTATACAACACGGAGTCACCTAGTGCAG,9760 fluorescence intensity (a.u.)
17,GTGTAATTGGTTTTTTTCCTACATTTAATACTCCATGCATCGGAGTCACCTAGTGCAG,8320 fluorescence intensity (a.u.)
18,TTGTGTCGTTAAATTTTCTTTTTATCTTATATTATATTTGCGGAGTCACCTAGTGCAG,8630 fluorescence intensity (a.u.)
19,GAATCTGACACACAATTGAGTTTTTTTGGTACTGAGAGGGCGGAGTCACCTAGTGCAG,8680 fluorescence intensity (a.u.)
20,GCGTCGATCGGCCGCTTTGGACGGCCCTGATTACGCCCATCGGAGTCACCTAGTGCAG,8340 fluorescence intensity (a.u.)
21,GGTGGAAAGGGGAGGGGAAGAAGATGCTGACATGTGGGACCGGAGTCACCTAGTGCAG,8380 fluorescence intensity (a.u.)
